Values quoted from earlier work in patent US20230414637A1 (priority 2020, published 2023).
At least one compound was matched to its structure with a doubt left.

Tests used:
[1] = system: SARS-CoV-2 in Vero 6 cells; settings: Jeon et al [14], read-out: IC50 for viral replication; cited from earlier work
[2] = system: oxidative phosphorylation; settings: Terada [39]; cited from earlier work

Compound	IC50 [1] [µM]	concentration of uncoupling activity [2] [µM]
CCC(CC)COC(=O)[C@H](C)N[P@](=O)(OC[C@H]1O[C@@](C#N)(c2ccc3c(N)ncnn23)[C@H](O)[C@@H]1O)Oc1ccccc1 [remdesivir]	11.4	–
O=[N+]([O-])c1ccc(O)c([N+](=O)[O-])c1 [dinitrophenol]	–	50
